{"source": "patent US20140050674A1", "about": "“Method for Improving Penetration or Long Term Adhesion of Compositions to Dental Tissues and Compositions Usable in Said Method” (University of Oulu, priority 2011, published 2014)", "key": {"[1]": {"test": "Contact angle measurements (sessile drop of water) on DMSO-pretreated acid-etched dentin", "parameters": "species or system human"}, "[2]": {"test": "Fluid flow measurements through dentin discs (Flodec)", "parameters": "species or system human", "settings": "DMSO solutions 15 s before bonding with Scotchbond 1XT"}, "[3]": {"test": "Microtensile bond strength testing", "settings": "for Long-term bond strength (mean and standard deviation): 12 months storage; for Increase in bond strength (immediate) vs control / Increase in bond strength (long-term) vs control: 0.003% DMSO"}, "[4]": {"test": "Nanoleakage evaluation (AgNO3 impregnation, FESEM)", "settings": "0.003% DMSO treatment"}}, "note": "Entries after “also recorded” stand apart in the source; their conditions may differ."}
{"smiles": "C[S+](C)[O-]", "note": "[DMSO, dimethyl sulphoxide]", "values": [{"measurement": "Contact angle (mean and SD)", "setting": "[1]; 1% DMSO pretreatment solution, 1 s after drop", "result": "48.3 (5.4) degrees"}, {"measurement": "Contact angle (mean and SD)", "setting": "[1]; 1% DMSO pretreatment solution, 10 s after drop", "result": "46.4 (3.6) degrees"}, {"measurement": "Contact angle (mean and SD)", "setting": "[1]; 1% DMSO pretreatment solution, 60 s after drop", "result": "43.6 (2.1) degrees"}, {"measurement": "Contact angle in relation to the control (100%)", "setting": "[1]; 1% DMSO, 1 s after drop", "result": 88.2, "unit": "%"}, {"measurement": "Contact angle in relation to the control (100%)", "setting": "[1]; 1% DMSO, 10 s after drop", "result": 84.8, "unit": "%"}, {"measurement": "Contact angle in relation to the control (100%)", "setting": "[1]; 1% DMSO, 60 s after drop", "result": 79.6, "unit": "%"}, {"measurement": "Contact angle (mean and SD)", "setting": "[1]; 2% DMSO pretreatment solution, 1 s after drop", "result": "46.2 (6.8) degrees"}, {"measurement": "Contact angle (mean and SD)", "setting": "[1]; 2% DMSO pretreatment solution, 10 s after drop", "result": "42.1 (4.0) degrees"}, {"measurement": "Contact angle (mean and SD)", "setting": "[1]; 2% DMSO pretreatment solution, 60 s after drop", "result": "35.7 (2.1) degrees"}, {"measurement": "Contact angle in relation to the control (100%)", "setting": "[1]; 2% DMSO, 1 s after drop", "result": 84.5, "unit": "%"}, {"measurement": "Contact angle in relation to the control (100%)", "setting": "[1]; 2% DMSO, 10 s after drop", "result": 77.1, "unit": "%"}, {"measurement": "Contact angle in relation to the control (100%)", "setting": "[1]; 2% DMSO, 60 s after drop", "result": 65.3, "unit": "%"}, {"measurement": "Contact angle (mean and SD)", "setting": "[1]; 3% DMSO pretreatment solution, 1 s after drop", "result": "38.6 (4.7) degrees"}, {"measurement": "Contact angle (mean and SD)", "setting": "[1]; 3% DMSO pretreatment solution, 10 s after drop", "result": "35.5 (3.2) degrees"}, {"measurement": "Contact angle (mean and SD)", "setting": "[1]; 3% DMSO pretreatment solution, 60 s after drop", "result": "30.2 (1.4) degrees"}, {"measurement": "Contact angle in relation to the control (100%)", "setting": "[1]; 3% DMSO, 1 s after drop", "result": 70.5, "unit": "%"}, {"measurement": "Contact angle in relation to the control (100%)", "setting": "[1]; 3% DMSO, 10 s after drop", "result": 64.8, "unit": "%"}, {"measurement": "Contact angle in relation to the control (100%)", "setting": "[1]; 3% DMSO, 60 s after drop", "result": 55.3, "unit": "%"}, {"measurement": "Contact angle (mean and SD)", "setting": "[1]; 4% DMSO pretreatment solution, 1 s after drop", "result": "33.7 (2.7) degrees"}, {"measurement": "Contact angle (mean and SD)", "setting": "[1]; 4% DMSO pretreatment solution, 10 s after drop", "result": "32.2 (2.6) degrees"}, {"measurement": "Contact angle (mean and SD)", "setting": "[1]; 4% DMSO pretreatment solution, 60 s after drop", "result": "28.5 (1.7) degrees"}, {"measurement": "Contact angle in relation to the control (100%)", "setting": "[1]; 4% DMSO, 1 s after drop", "result": 61.5, "unit": "%"}, {"measurement": "Contact angle in relation to the control (100%)", "setting": "[1]; 4% DMSO, 10 s after drop", "result": 58.9, "unit": "%"}, {"measurement": "Contact angle in relation to the control (100%)", "setting": "[1]; 4% DMSO, 60 s after drop", "result": 52.2, "unit": "%"}, {"measurement": "Contact angle (mean and SD)", "setting": "[1]; 5% DMSO pretreatment solution, 1 s after drop", "result": "29.2 (3.4) degrees"}, {"measurement": "Contact angle (mean and SD)", "setting": "[1]; 5% DMSO pretreatment solution, 10 s after drop", "result": "28.2 (3.1) degrees"}, {"measurement": "Contact angle (mean and SD)", "setting": "[1]; 5% DMSO pretreatment solution, 60 s after drop", "result": "25.3 (1.9) degrees"}, {"measurement": "Contact angle in relation to the control (100%)", "setting": "[1]; 5% DMSO, 1 s after drop", "result": 53.4, "unit": "%"}, {"measurement": "Contact angle in relation to the control (100%)", "setting": "[1]; 5% DMSO, 10 s after drop", "result": 51.5, "unit": "%"}, {"measurement": "Contact angle in relation to the control (100%)", "setting": "[1]; 5% DMSO, 60 s after drop", "result": 46.2, "unit": "%"}, {"measurement": "Mean difference in contact angle between DMSO and control (0% DMSO)", "setting": "[1]; 5% DMSO, first measurement, 1 second after drop", "result": 25.5, "unit": "°"}, {"measurement": "Mean contact angle as % of that measured in control samples", "setting": "[1]; 5% DMSO, whole recording period 60 s (SD 0.27%; maximum 53.38%, minimum 52.52%)", "result": 52.92, "unit": "%"}, {"measurement": "Dentinal fluid flow into hybrid/adhesive layer during adhesive application and composite build-up", "setting": "[2]", "result": "capable of inhibiting the dentinal fluid flow; also recorded: significant reduction of pulpal fluid flow; also recorded: greatly reduced"}, {"measurement": "Immediate bond strength (mean and standard deviation)", "setting": "[3]; 0.003% DMSO dentin treatment, 2-step etch-and-rinse adhesive SB1, Exp. 1", "result": "18.4 (5.5) MPa"}, {"measurement": "Immediate bond strength (mean and standard deviation)", "setting": "[3]; 0.003% DMSO dentin treatment, 2-step etch-and-rinse adhesive SB1, Exp. 2", "result": "39.1 (3.1) MPa"}, {"measurement": "Immediate bond strength (mean and standard deviation)", "setting": "[3]; 0.003% DMSO dentin treatment, 2-step etch-and-rinse adhesive SB1, Exp. 3", "result": "29.5 (8.9) MPa"}, {"measurement": "Long-term bond strength (mean and standard deviation)", "setting": "[3]; 0.003% DMSO dentin treatment, SB1 Exp. 3", "result": "26.9 (9.0) MPa"}, {"measurement": "Long-term bond strength (mean and standard deviation)", "setting": "[3]; 0.003% DMSO dentin treatment, Scotchbond SE", "result": "6.9 (4.2) MPa"}, {"measurement": "Immediate bond strength (mean and standard deviation)", "setting": "[3]; 0.003% DMSO dentin treatment, self-etch adhesive Scotchbond SE", "result": "14.2 (6.2) MPa"}, {"measurement": "Immediate bond strength (mean and standard deviation)", "setting": "[3]; 0.003% DMSO dentin treatment, self-etch adhesive Silorane", "result": "38.2 (6.1) MPa"}, {"measurement": "Increase in bond strength (immediate) vs control", "setting": "[3]; SB1, Exp. 1", "result": "−8.5", "unit": "%"}, {"measurement": "Increase in bond strength (immediate) vs control", "setting": "[3]; SB1, Exp. 2", "result": 6.0, "unit": "%"}, {"measurement": "Increase in bond strength (immediate) vs control", "setting": "[3]; SB1, Exp. 3", "result": 17.1, "unit": "%"}, {"measurement": "Increase in bond strength (long-term) vs control", "setting": "[3]; SB1 Exp. 1, 6 months", "result": 53.2, "unit": "%"}, {"measurement": "Increase in bond strength (long-term) vs control", "setting": "[3]; SB1 Exp. 1, 12 months", "result": 73.0, "unit": "%"}, {"measurement": "Increase in bond strength (long-term) vs control", "setting": "[3]; SB1 Exp. 2, 6 months", "result": 52.6, "unit": "%"}, {"measurement": "Increase in bond strength (long-term) vs control", "setting": "[3]; SB1 Exp. 3, 12 months", "result": 21.7, "unit": "%"}, {"measurement": "Increase in bond strength (immediate) vs control", "setting": "[3]; SBMP", "result": 27.9, "unit": "%"}, {"measurement": "Increase in bond strength (long-term) vs control", "setting": "[3]; SBMP, 12 months", "result": 51.3, "unit": "%"}, {"measurement": "Increase in bond strength (immediate) vs control", "setting": "[3]; Scotchbond SE", "result": 32.7, "unit": "%"}, {"measurement": "Increase in bond strength (long-term) vs control", "setting": "[3]; Scotchbond SE, 12 months", "result": 38.0, "unit": "%"}, {"measurement": "Increase in bond strength (immediate) vs control", "setting": "[3]; Silorane", "result": 19.4, "unit": "%"}, {"measurement": "Increase in bond strength (long-term) vs control", "setting": "[3]; Silorane, 12 months", "result": 22.5, "unit": "%"}, {"measurement": "Improvement of immediate bond strength", "setting": "[3]; DMSO treatment of dentin (Table 2, FIG. 7)", "result": "up to 27.9%"}, {"measurement": "Increase in immediate bond strength vs control", "setting": "[3]; about 1% DMSO (w/w) mixed directly into Scotchbond Universal adhesive", "result": 10.8, "unit": "%"}, {"measurement": "Immediate bond strength (mean and standard deviation)", "setting": "[3]; about 1% DMSO (w/w) mixed directly into Scotchbond Universal adhesive, control 26.1±5.4 MPa", "result": "29.8±5.7", "unit": "MPa"}, {"measurement": "Long-term bond strength vs control", "setting": "[3]; separate dentin treatment with 0.003% DMSO, storage for six or 12 months", "result": "higher bond strength in all experiments"}, {"measurement": "Immediate nanoleakage, DMSO vs controls", "setting": "[4]", "result": "no difference"}, {"measurement": "Nanoleakage, immediate vs 6-month results in DMSO group", "setting": "[4]; 6 month storage in artificial saliva", "result": "no difference"}]}
